# The supplement of paper PMC10849652
# The chains behind the UniProt entries cited, without tags or fusion partners. Where a name states a change or a piece, a line headed by the entry shows the natural chain unless it says otherwise.
# UniProt P16383: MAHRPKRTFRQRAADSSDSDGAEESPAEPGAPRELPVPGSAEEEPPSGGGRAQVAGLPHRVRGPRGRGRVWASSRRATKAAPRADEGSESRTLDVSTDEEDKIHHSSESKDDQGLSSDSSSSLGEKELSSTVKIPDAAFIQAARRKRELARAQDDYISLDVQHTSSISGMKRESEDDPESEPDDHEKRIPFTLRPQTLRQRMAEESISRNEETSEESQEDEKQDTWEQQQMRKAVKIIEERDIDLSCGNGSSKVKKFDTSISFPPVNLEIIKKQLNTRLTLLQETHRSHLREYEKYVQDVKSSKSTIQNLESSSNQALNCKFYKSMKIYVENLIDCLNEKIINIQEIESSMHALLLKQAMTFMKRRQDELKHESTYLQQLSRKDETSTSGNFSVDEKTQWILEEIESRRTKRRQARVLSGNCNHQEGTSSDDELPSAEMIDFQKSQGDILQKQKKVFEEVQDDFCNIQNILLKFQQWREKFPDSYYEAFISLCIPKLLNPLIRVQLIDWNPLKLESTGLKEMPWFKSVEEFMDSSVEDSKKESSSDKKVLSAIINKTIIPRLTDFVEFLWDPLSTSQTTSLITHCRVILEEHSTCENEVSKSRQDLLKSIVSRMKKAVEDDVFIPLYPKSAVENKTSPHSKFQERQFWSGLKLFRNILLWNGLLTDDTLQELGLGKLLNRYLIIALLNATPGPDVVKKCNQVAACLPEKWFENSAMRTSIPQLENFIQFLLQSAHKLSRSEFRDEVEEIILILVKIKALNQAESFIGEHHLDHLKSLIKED
# UniProt Q8IVV7: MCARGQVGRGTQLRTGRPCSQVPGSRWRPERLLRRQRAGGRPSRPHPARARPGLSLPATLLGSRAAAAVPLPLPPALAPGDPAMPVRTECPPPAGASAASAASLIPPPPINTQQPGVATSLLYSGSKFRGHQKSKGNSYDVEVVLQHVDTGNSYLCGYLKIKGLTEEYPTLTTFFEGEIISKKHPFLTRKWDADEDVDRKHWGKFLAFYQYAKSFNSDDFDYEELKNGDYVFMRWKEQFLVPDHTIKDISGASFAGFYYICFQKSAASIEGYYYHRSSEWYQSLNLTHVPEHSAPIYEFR
# UniProt Q9UP38, whole entry, looked up: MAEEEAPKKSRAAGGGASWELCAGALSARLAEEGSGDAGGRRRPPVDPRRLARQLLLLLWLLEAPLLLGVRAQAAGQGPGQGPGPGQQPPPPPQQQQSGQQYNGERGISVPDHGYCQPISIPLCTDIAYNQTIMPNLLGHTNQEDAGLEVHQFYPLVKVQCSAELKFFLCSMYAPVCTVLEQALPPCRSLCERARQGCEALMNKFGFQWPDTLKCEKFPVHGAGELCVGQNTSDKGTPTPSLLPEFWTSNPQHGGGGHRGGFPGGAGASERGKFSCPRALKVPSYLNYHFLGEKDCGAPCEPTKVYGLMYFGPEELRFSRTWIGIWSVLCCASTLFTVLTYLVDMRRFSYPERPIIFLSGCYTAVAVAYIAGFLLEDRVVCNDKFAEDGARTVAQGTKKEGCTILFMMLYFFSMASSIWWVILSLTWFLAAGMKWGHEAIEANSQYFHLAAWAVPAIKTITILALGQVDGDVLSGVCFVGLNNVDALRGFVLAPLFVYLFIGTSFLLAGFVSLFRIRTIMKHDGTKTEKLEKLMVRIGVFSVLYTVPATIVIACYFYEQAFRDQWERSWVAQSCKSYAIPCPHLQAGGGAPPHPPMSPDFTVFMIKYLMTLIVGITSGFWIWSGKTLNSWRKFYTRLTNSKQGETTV
# UniProt Q13467, whole entry, looked up: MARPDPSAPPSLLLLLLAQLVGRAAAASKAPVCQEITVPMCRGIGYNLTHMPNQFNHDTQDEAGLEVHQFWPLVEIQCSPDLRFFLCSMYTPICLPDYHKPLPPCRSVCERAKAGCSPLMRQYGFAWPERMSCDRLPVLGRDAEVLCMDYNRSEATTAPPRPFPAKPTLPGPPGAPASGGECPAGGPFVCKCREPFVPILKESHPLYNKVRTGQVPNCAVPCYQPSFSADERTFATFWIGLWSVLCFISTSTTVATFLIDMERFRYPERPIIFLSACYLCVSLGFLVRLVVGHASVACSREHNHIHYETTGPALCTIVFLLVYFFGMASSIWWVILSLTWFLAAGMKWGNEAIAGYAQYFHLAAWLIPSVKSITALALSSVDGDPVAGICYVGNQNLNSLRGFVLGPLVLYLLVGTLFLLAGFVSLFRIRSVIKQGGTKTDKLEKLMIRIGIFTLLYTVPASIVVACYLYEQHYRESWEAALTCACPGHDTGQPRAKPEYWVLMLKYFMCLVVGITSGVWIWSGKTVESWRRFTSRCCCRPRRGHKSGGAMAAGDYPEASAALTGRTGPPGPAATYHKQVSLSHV
# UniProt Q5TBA9: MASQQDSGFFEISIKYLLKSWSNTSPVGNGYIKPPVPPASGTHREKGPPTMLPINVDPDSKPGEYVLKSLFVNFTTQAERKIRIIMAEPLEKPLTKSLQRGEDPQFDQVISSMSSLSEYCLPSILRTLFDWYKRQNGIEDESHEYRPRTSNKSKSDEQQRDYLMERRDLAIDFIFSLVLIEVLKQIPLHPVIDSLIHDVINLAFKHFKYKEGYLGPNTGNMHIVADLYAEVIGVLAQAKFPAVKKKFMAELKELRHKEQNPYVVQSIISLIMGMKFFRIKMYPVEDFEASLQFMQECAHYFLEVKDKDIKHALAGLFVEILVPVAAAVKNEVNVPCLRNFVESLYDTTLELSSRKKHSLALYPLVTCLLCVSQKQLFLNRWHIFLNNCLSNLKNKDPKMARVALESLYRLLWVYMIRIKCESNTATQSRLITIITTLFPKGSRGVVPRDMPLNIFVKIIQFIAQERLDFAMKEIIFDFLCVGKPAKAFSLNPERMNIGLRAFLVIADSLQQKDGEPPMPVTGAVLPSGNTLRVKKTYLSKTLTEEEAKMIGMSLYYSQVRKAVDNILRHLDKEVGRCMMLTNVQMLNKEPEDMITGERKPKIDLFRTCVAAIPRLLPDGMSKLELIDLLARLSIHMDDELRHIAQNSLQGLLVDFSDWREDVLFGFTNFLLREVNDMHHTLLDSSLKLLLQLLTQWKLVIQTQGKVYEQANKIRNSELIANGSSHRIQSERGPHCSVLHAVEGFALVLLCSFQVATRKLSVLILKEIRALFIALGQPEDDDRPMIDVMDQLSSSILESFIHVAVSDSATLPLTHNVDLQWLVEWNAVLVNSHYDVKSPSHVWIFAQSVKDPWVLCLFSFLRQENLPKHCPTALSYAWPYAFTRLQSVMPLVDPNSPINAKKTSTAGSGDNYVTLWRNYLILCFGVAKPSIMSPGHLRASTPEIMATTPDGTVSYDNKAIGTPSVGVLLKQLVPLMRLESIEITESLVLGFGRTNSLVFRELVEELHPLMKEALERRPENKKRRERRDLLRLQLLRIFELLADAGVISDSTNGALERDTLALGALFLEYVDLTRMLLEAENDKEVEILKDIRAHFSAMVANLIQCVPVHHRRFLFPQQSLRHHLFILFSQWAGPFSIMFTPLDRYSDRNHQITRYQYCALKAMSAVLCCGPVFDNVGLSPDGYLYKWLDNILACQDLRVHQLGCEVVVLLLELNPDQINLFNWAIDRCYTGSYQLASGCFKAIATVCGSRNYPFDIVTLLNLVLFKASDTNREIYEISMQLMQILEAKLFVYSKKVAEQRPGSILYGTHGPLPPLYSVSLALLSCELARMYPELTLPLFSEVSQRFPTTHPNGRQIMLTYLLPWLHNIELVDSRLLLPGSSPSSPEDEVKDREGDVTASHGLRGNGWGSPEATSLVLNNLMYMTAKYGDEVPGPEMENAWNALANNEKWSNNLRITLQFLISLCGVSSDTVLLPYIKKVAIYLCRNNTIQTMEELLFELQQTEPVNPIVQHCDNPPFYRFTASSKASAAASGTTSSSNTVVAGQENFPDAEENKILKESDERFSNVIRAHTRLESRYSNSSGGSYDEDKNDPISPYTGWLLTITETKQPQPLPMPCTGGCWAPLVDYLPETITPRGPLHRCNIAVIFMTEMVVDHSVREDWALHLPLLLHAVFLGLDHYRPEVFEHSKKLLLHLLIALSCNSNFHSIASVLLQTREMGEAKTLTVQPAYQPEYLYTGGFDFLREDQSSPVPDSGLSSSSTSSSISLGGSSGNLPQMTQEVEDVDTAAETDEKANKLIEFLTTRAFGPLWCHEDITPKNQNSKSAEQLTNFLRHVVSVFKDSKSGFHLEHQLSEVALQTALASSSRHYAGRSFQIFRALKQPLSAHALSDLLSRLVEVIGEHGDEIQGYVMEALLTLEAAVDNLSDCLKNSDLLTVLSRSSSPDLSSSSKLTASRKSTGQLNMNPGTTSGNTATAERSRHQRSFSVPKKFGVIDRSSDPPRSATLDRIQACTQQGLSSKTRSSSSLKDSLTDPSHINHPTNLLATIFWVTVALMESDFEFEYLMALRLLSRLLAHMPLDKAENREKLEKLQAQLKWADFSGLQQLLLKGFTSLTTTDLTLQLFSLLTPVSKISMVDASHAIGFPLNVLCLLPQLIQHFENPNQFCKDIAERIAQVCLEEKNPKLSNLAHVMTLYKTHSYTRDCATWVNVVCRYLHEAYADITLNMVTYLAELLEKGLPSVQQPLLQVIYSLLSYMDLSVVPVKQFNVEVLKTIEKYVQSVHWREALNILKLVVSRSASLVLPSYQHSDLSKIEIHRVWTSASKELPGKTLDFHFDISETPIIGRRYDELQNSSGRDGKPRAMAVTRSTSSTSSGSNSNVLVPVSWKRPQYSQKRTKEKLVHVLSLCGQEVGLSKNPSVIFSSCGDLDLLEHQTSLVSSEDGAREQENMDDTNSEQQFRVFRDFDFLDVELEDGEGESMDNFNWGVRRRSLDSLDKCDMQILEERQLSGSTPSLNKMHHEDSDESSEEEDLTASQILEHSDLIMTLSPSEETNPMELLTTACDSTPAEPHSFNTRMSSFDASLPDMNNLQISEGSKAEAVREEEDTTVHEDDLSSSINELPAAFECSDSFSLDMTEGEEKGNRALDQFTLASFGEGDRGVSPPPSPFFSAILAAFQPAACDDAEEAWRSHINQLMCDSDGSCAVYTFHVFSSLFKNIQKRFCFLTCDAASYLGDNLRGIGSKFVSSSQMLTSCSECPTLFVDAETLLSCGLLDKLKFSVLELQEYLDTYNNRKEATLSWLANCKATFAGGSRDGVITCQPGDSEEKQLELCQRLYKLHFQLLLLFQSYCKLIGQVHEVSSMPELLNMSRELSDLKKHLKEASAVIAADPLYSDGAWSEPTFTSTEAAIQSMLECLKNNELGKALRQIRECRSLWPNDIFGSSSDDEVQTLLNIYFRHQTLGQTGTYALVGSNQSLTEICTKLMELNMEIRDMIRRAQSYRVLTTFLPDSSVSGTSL
# UniProt Q8IY81: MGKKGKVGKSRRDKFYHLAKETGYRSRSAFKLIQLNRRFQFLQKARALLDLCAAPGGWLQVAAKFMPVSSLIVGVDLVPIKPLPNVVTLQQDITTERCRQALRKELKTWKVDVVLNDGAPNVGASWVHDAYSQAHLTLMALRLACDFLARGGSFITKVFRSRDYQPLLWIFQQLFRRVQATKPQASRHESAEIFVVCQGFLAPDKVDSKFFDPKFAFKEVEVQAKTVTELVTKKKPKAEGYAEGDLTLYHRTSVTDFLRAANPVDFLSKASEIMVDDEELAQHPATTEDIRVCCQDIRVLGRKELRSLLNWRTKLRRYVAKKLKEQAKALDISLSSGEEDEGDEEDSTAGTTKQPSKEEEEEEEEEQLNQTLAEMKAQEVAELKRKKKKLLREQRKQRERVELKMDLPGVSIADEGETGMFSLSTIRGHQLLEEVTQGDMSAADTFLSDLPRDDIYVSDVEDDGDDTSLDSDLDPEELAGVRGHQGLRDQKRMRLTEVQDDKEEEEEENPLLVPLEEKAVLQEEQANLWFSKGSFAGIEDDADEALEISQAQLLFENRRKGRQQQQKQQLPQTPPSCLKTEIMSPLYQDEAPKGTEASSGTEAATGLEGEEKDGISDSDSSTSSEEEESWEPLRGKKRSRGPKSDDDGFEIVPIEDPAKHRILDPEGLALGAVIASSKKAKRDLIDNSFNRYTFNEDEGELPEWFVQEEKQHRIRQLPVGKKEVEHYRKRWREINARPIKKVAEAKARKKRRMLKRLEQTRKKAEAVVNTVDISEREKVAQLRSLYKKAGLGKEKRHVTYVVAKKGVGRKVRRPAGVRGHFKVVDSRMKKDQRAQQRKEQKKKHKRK
# UniProt Q7L5L3: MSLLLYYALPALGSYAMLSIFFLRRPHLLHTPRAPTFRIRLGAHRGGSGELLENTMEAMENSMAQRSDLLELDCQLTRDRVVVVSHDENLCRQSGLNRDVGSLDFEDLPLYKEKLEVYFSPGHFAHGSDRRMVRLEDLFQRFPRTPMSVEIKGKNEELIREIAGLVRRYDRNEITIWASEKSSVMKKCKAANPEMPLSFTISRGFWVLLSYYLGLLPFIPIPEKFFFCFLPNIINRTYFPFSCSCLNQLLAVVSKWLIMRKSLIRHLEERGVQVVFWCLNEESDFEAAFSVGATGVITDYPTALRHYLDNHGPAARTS
# This is one part of the list. Residues, ends and D or L forms follow the SMILES beside them. *: point of attachment. Cbz = O=C(OCc1ccccc1)*
# Compound: C=CC(=O)N1CCC[C@@H](n2nc(-c3ccc(Oc4ccccc4)cc3)c3c(N)ncnc32)C1 [ibrutinib]
# Experiment: log2 fold change, soluble protein after heating vs DMSO (PISA); higher = thermal stabilisation; K562 cells, 10 uM, 30 min; active = over 0.2 and 3.5 SD of the protein, either way, in both replicates (recomputed)
# Method in brief: (§1)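 Aliquots of K562 cells (2×10^6 cells/mL) treated with 10 μM compound for 30 min were heated for 3 min over 48°C-58°C. After pooling and extraction in PBS with 0.5% NP-40 at 4°C, soluble protein from a 21,000xg, 90 min spin was quantified by TMTpro 16plex LC-MS/MS with channel sums equalised. Thermal stability is expressed against control samples, from duplicates, as a log2 fold change.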
row,Target,log2 fold change
1,GATA2 (UniProt P23769),inactive: 0.068
2,GCFC2 (UniProt P16383),inactive: 0.066
3,GID4 (UniProt Q8IVV7),inactive: 0.035
4,GABPB1 isoform 3 (UniProt Q06547),inactive: -0.031
5,FZD1 (UniProt Q9UP38),inactive: -0.154
6,GFM2 (UniProt Q969S9),inactive: -0.074
7,FZD5 (UniProt Q13467),inactive: 0.215
8,FUNDC1 (UniProt Q8IVP5),inactive: -0.023
9,FRMPD3 (UniProt Q5JV73),inactive: 0.067
10,FRY (UniProt Q5TBA9),inactive: -0.122

# Compound: CC(=O)c1cnc2ccc(-c3cc(Cl)c(O)c(Cl)c3)nc2c1N[C@H]1CC[C@H](CN(C)C)CC1
# Experiment: as above
# Method in brief: as §1
row,Target,log2 fold change
1,GEMIN8 (UniProt Q9NWZ8),inactive: 0.029
2,FYTTD1 (UniProt Q96QD9),inactive: -0.278
3,GATA2 (UniProt P23769),inactive: 0.021
4,GCFC2 (UniProt P16383),inactive: 0.045
5,GID4 (UniProt Q8IVV7),inactive: 0.025
6,GDPGP1 (UniProt Q6ZNW5),inactive: -0.249
7,FRYL isoform 2 (UniProt O94915),inactive: -0.032
8,FTSJ3 (UniProt Q8IY81),inactive: -0.048
9,FRMD8 (UniProt Q9BZ67),inactive: -0.023
10,GDPD3 (UniProt Q7L5L3),inactive: -0.319
11,FRY (UniProt Q5TBA9),inactive: -0.049

# Compound: CC(C)(C)Cn1c(N)nc2ccc(-c3[nH]c(C(C)(C)C)nc3-c3ccc(F)cc3)nc21 [ralimetinib]
# Experiment: as above
# Method in brief: as §1
row,Target,log2 fold change
1,FRAT1 (UniProt Q92837),inactive: -0.009
2,GATA2 (UniProt P23769),inactive: 0.003
3,GCFC2 (UniProt P16383),inactive: -0.028
4,GID4 (UniProt Q8IVV7),inactive: -0.019
5,FRYL isoform 2 (UniProt O94915),inactive: 0.075
6,FTSJ3 (UniProt Q8IY81),inactive: 0.194
7,GGACT (UniProt Q9BVM4),inactive: 0.028
8,FRMPD3 (UniProt Q5JV73),inactive: -0.303

# Compound: CC(C)(O)CC(=O)NCCn1ccc2ncnc(Nc3ccc(Oc4cccc(C(F)(F)F)c4)c(Cl)c3)c21
# Experiment: as above
# Method in brief: as §1
row,Target,log2 fold change
1,GEMIN8 (UniProt Q9NWZ8),inactive: -0.133
2,GAS6 isoform 1 (UniProt Q14393),inactive: 0.05
3,FYTTD1 (UniProt Q96QD9),inactive: 0.081
4,GCFC2 (UniProt P16383),inactive: -0.278
5,GID4 (UniProt Q8IVV7),inactive: 0.016
6,FUT1 (UniProt P19526),inactive: -0.094
7,FZD1 (UniProt Q9UP38),inactive: -0.128
8,FRYL isoform 2 (UniProt O94915),inactive: -0.069
9,GFOD2 (UniProt Q3B7J2),inactive: -0.385
10,GEMIN7 (UniProt Q9H840),inactive: 0.029
11,FZD5 (UniProt Q13467),inactive: 0.029
12,FRMD8 (UniProt Q9BZ67),inactive: -0.475
13,GDPD3 (UniProt Q7L5L3),inactive: -0.167
14,FRMPD3 (UniProt Q5JV73),inactive: 0.246
15,FUT10 isoform 2 (UniProt Q6P4F1),inactive: 0.109
16,FRY (UniProt Q5TBA9),inactive: 0.004

# Compound: CC(C)C1=C2N=C(C=C(N2N=C1)NCC3=CC=CC=C3)NCCCCCCN
# Experiment: as above
# Method in brief: as §1
row,Target,log2 fold change
1,GALNT3 (UniProt Q14435),inactive: 0.074
2,GCFC2 isoform 3 (UniProt P16383),inactive: -0.032
3,GEMIN8 (UniProt Q9NWZ8),inactive: 0.006
4,GAS6 isoform 1 (UniProt Q14393),inactive: -0.067
5,GATA2 (UniProt P23769),inactive: 0.229
6,GCFC2 (UniProt P16383),inactive: 0.021
7,GID4 (UniProt Q8IVV7),inactive: 0.028
8,GAPDH isoform 2 (UniProt P04406),inactive: -0.036
9,GDPGP1 (UniProt Q6ZNW5),inactive: 0.195
10,FZD1 (UniProt Q9UP38),inactive: -0.573
11,G6PC3 (UniProt Q9BUM1),inactive: -0.056
12,FTSJ3 (UniProt Q8IY81),inactive: -0.018
13,GEMIN7 (UniProt Q9H840),inactive: -0.303
14,FZD5 (UniProt Q13467),inactive: 0.322
15,GDPD3 (UniProt Q7L5L3),inactive: -0.025
16,FRMPD3 (UniProt Q5JV73),inactive: -0.056
17,FTSJ1 isoform 2 (UniProt Q9UET6),inactive: 0.045
18,FRY (UniProt Q5TBA9),inactive: -0.149

# Compound: CC(C)C[C@@H](C=O)NC(=O)[C@H](CC(C)C)NC(=O)[C@H](CC(C)C)NC(=O)OCc1ccccc1
# Experiment: as above
# Method in brief: as §1
row,Target,log2 fold change
1,FRAT1 (UniProt Q92837),inactive: 0.06
2,GATA2 (UniProt P23769),inactive: 0.204
3,GCFC2 (UniProt P16383),inactive: 0.056
4,GID4 (UniProt Q8IVV7),inactive: 0.027
5,FRYL isoform 2 (UniProt O94915),inactive: -0.087
6,FTSJ3 (UniProt Q8IY81),inactive: 0.203
7,GGACT (UniProt Q9BVM4),inactive: -0.068
8,FRMPD3 (UniProt Q5JV73),inactive: 0.52
